A short description of data set [1]: Vapor-liquid equilibrium still, separation of 1,1,1-trichloroethane from n-propanol. Format: physicochemical.
Data set [2] in a line: Vapor-liquid equilibrium still, separation of 1,1,1-trichloroethane from ethanol. The data set is classed as physicochemical.

SMILES strings stand for the structures.

Turning to `CC(=O)N(C)C` [Dimethylacetamide], the “Relative Volatility” value in data set [1] turned out to be 2.8; in data set [2], 2.1.

Source of the values: US5196094A, “Separation of 1,1,1-trichloroethane from the lower alcohols by extractive distillation” (priority 1991, dated 1993).
